# Earlier results as cited in patent publication US20100298394A1, “ANTIFUNGAL AGENTS AS NEUROPROTECTANTS” (THE JOHNS HOPKINS UNIVERSITY, priority 2007, published 2010).
# Some entries share one result that the patent states for a list of compounds. At least one compound was matched to its structure with a doubt left.
# Test system: fungal CYP51 versus human CYP51
# Details: cited from earlier work
row,SMILES,potencies for fungal CYP51 versus human CYP51
1,"OC(Cn1cncn1)(Cn1cncn1)c1ccc(F)cc1F [FLUCONAZOLE, Fluconazole]",greater than 400 fold
2,CCC(C)n1ncn(-c2ccc(N3CCN(c4ccc(OCC5COC(Cn6cncn6)(c6ccc(Cl)cc6Cl)O5)cc4)CC3)cc2)c1=O (centres unmarked) [itraconazole],greater than 400 fold
